No constants are given. Whether binding was seen depends on the method and setting. In cells and extracts the contact can be indirect. Some binding calls cover weakened binding; strength is not graded here.
How the values were obtained:
Grg5 (mGrg5) (mouse) = target: T1, Grg5 (mGrg5) (mouse) (UniProt P63002); experiment: GST co-precipitation, 35S-labelled Grg5
T1 sequence (looked up): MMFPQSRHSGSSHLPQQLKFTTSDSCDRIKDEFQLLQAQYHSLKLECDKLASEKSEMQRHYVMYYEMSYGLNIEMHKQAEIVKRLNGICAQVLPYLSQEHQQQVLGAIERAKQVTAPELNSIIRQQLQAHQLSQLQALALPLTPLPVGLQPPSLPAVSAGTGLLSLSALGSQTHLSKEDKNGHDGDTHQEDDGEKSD

Amino acid sequences for entries named in this document (tags omitted).
UniProt P47239: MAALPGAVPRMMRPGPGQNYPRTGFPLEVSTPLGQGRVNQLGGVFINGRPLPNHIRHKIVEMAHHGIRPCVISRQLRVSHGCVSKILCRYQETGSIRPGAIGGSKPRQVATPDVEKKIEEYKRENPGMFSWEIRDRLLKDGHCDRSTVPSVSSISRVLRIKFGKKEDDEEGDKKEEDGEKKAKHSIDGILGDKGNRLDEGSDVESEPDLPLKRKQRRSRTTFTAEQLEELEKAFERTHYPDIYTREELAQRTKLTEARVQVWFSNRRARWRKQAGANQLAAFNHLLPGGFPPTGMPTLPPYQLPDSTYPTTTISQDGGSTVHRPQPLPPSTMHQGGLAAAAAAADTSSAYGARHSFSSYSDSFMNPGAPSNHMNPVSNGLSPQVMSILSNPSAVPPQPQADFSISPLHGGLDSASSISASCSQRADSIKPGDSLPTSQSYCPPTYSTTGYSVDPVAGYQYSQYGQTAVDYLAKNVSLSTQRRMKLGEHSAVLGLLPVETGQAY
UniProt P16371: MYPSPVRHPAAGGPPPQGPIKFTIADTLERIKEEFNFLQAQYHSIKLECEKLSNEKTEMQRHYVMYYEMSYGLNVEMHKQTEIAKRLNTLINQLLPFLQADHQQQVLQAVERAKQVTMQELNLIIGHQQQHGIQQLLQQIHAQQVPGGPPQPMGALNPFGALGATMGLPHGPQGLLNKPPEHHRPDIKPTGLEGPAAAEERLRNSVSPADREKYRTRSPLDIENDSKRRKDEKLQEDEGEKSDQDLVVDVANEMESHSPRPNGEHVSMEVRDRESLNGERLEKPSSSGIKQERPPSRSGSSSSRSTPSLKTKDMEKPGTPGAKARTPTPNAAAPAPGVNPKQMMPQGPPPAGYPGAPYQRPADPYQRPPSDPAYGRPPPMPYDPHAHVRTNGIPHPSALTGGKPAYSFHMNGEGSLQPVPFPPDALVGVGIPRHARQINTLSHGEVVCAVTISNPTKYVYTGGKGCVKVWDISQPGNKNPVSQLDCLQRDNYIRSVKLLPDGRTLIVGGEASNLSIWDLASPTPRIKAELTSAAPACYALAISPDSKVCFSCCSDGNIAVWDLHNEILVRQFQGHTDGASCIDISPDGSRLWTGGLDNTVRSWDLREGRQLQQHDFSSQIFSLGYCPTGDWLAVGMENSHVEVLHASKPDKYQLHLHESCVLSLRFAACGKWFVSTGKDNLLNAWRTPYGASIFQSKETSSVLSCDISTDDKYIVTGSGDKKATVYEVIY

Dbx1 (mDbx1) (mouse) = target: T2, Dbx1 (mDbx1) (mouse) (UniProt P52950); experiment: GST co-precipitation, GST-Gro on glutathione-sepharose beads, 35S-labelled class I protein
T2 sequence (looked up): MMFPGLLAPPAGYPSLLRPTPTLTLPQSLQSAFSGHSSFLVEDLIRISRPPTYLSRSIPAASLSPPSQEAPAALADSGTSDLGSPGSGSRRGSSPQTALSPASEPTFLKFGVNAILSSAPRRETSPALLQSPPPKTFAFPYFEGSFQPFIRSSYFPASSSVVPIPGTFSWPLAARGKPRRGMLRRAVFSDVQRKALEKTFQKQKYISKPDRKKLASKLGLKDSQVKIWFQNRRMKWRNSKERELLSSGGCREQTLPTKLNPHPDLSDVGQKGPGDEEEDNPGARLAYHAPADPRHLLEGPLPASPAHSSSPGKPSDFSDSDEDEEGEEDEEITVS

Pax7 (mPax7) (mouse) = Pax7 (mPax7) (mouse) (UniProt P47239); experiment: as above
[1] = target: T3, Nkx2.9 (full-length, mNkx2.9) (mouse) (UniProt O70584); experiment: GST co-precipitation, GST-Gro on glutathione-sepharose beads, 35S-labelled Nkx protein
T3 sequence (looked up): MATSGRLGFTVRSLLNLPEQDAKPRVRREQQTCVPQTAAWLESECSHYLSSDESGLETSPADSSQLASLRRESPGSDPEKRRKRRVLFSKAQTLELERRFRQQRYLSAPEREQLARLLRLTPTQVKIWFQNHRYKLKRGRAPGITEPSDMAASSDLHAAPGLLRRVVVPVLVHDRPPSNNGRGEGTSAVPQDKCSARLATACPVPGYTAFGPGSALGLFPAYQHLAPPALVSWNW

[2] = target: T4, Nkx6.1 (full-length, rNkx6.1) (rat) (UniProt O35762); experiment: as above
T4 sequence (looked up): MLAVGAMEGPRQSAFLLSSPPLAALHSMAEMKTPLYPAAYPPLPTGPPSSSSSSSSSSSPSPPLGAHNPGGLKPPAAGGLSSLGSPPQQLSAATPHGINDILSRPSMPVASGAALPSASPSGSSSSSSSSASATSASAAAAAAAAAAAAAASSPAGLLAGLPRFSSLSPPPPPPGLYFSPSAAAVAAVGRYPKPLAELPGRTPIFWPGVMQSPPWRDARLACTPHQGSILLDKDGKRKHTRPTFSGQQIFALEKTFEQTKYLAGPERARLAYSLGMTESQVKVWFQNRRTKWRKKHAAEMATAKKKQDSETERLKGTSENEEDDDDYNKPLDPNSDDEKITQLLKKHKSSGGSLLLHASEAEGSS

Measured: binding

GST-Gro fusion protein (glutathione S-transferase fused to Drosophila Groucho) (from UniProt P16371 1-730)
binds: Grg5 (mGrg5) (mouse) | Dbx1 (mDbx1) (mouse) | Pax7 (mPax7) (mouse) | [1] | [2]

From patent US20040048377A1
